Measurements taken from PubChem BioAssay AID2417 (National Center for Advancing Translational Sciences (NCATS), 2010).
About 4,300 (3.1%) of roughly 140,000 compounds were called active. Inconclusive means that the source gave no clear call. Such entries were picked first, then a sample of the others.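 The calls were made as follows: active = readout at or below -70, meaning at least 70% loss of cells showing the perinucleolar compartment, a nuclear body marking cancer cells; inconclusive = readout between -30 and a set limit; inactive = the rest.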

Assay: High Content Assay for Compounds that inhibit the Assembly of the Perinucleolar Compartment;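 also: plate controls were DMSO wells for no effect and camptothecin positive control wells for full effect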
Details: PC3M PTB-GFP, PNC prevalence imaging, 16 h; at 10 µM; stronger effect = lower value
Outline: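 PC3M cells stably expressing PTB-GFP, 750–1000 cells/well, treated 16 h at 37 °C with compound (23 nl of library stock), in duplicate. After paraformaldehyde fixation and Hoechst stain, imaged at 20x; PNC prevalence scored by image analysis.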

Row | SMILES | activity change (PNC), negative = inhibition
1 | CC(=O)Nc1sc(N)nc1-c1ccccc1 | inactive: -16.4%
2 | O=S(=O)(NC1CCCCCC1)c1cccc2cccnc12 | inactive: 4.39%
3 | Cc1c(C(=O)NCCc2ccccc2)oc2ccc(S(=O)(=O)N3CCOCC3)cc12 | inconclusive: -47.6%
4 | O=[N+]([O-])c1ccc(-c2cn(-c3ccc(Cl)cc3)c(=S)[nH]2)cc1 | inconclusive: -61.1%
5 | CCC(C)[C@H](NC(=O)NCCCN1CCOCC1)C(=O)OC (some centres not stated) | inconclusive: -31.7%
6 | O=C(NC(O)C(=O)c1cccs1)c1cccnc1 (configuration not stated) | inconclusive: -34.6%
7 | COc1ccc(S(=O)(=O)NCc2ccc(C(=O)N3CCc4ccccc4C3)cc2)cc1 | inconclusive: -49.4%
8 | COc1ccc([N+](=O)[O-])cc1NC(=O)CCCOc1ccccc1 | inconclusive: -38.6%
9 | COc1cccc(N=Nc2c(N)[nH]n3c(=O)cc(-c4ccccc4)nc23)c1 | inactive: 12.4%
10 | Cn1c(SCC(=O)Nc2cccc(F)c2)nnc1-c1cccnc1 | inconclusive: -33.4%
11 | CC(=O)c1cccc(-n2nnnc2SCC(=O)Nc2ccccc2N2CCCCC2)c1 | active: -106%
12 | CNC(=S)NNC(=O)Cc1ccccc1 | inconclusive: -63.2%
13 | O=C(Oc1ccc(-c2nnco2)cc1)N1CCCCC1 | inconclusive: -41.2%
14 | CCNC(=S)N/N=C/c1cc(C)ccc1C | inconclusive: -49.6%
15 | CCc1ccc(NC(=O)CSc2nnc(Cc3cccn3C)n2-c2ccc(F)cc2)cc1 | active: -89.9%
16 | COc1cccc(N2CCN(CC(=O)Nc3nc4c(s3)CC(C)CC4)CC2)c1 (configuration not stated) | inconclusive: -33.3%
17 | CCOC(=O)NC1(NCc2ccccc2)Oc2ccccc2O1 | inactive: 13%
18 | COc1ccc(C(=O)Nn2c(SCC(=O)NCc3ccco3)nc3ccccc3c2=O)cc1 | inactive: -20.8%
19 | CC(C)(C)OC(=O)N[C@@H](Cc1ccccc1)c1nnc(SCC(=O)O)o1 | inactive: -5.67%
20 | COc1ccc(/C=N/Nc2cc(OC)ncn2)cc1 | inconclusive: -63.3%
21 | CCOc1ccc2nc3c(cc2c1)CN(CCOC)C(=NCCOC)S3 | inactive: 22.6%
22 | C/C(=N/NC(=O)c1cc2ccccc2cc1O)C1C(=O)c2ccccc2C1=O | inactive: -27.7%
23 | CC(C)(C)N1CC2(c3ccccc3)CN(C(C)(C)C)CC(c3ccccc3)(C1)C2=O | inconclusive: -33%

Row | SMILES | activity change (PNC), negative = inhibition
24 | COc1ccccc1-n1cnnc1SCC(=O)Nc1ncc(Cl)cc1Cl | inconclusive: -31.6%
25 | O=C(Nc1ccc(S(=O)(=O)N2CCCC2)cc1)c1ccc2c(=O)n3c(nc2c1)CCCCC3 | inconclusive: -36.5%
26 | CCOC(=O)c1sc(NS(=O)(=O)c2ccccc2)nc1C | inconclusive: -34.4%
27 | COc1ccc2nc(SCC(=O)NC(C)(C)C)[nH]c2c1 | inconclusive: -45.5%
28 | O=C(CC1(O)C(=O)N(CCc2ccccc2)c2ccccc21)c1ccco1 (configuration not stated) | inconclusive: -65.2%
29 | COc1ccc(OC)c(C2C(C(C)=O)=C(O)C(=O)N2c2ccc(O)cc2)c1 (configuration not stated) | inconclusive: -33%
30 | COC(=O)c1sc(N2C(=O)C(=O)/C(=C(/O)c3ccccc3)C2c2ccco2)nc1C (configuration not stated) | active: -83.9%
31 | c1csc(C2Nc3cccc4cccc(c34)N2)c1 | inactive: 48.2%
32 | CCCn1c(=O)c2c(c3ccccc31)OC(C)C(=O)N2 (configuration not stated) | active: -88.3%
33 | Cn1c(SCC(=O)O)nc2ccccc2c1=O | inconclusive: -40.5%
34 | CC1CCN(c2c(NCC3CCC(C(=O)NCc4ccccc4Cl)CC3)c(=O)c2=O)CC1 (configuration not stated) | inactive: 30%
35 | COc1ccc(N(C(=O)Nc2ccc(Cl)cc2)C2=NCCC2)cc1 | inconclusive: -50.9%
36 | Cn1c(Cn2c(=O)sc3ccccc32)nnc1SCC(=O)N1CCCCCC1 | inconclusive: -31.4%
37 | CCCCSc1nnc([C@@H]2CCCN2C(=O)OC(C)(C)C)o1 | inactive: -13.4%
38 | N#Cc1c2c(c(Nc3ccc(O)cc3)n3c1nc1ccccc13)CCC2 | inactive: -26.9%
39 | Cc1ccccc1NC(=O)CCC(=O)N/N=C/c1cc([N+](=O)[O-])ccc1O | inconclusive: -42.3%
40 | Cn1c(=O)c2c(nc(N3CCOCC3)n2CC(=O)c2ccccc2)n(C)c1=O | inconclusive: -68.9%
41 | Cc1ccc(-c2csc3ncnc(OCC(=O)NC(=O)NCc4ccco4)c23)cc1 | active: -125%
42 | CCN1C(=O)NC2=C(C(=O)c3ccccc32)C1c1ccccc1F (configuration not stated) | inconclusive: -50%
43 | O=S1(=O)N=C(N2CCN(Cc3ccccc3)CC2)c2ccccc21 | inactive: 24.4%
44 | CC(C)(C)c1ccc(C(=O)NC(=S)Nc2sc3c(c2C#N)CCC3)cc1 | inactive: -8.3%
45 | CN1CCN(CCCCC(=O)c2ccccc2)CC1 | inconclusive: -32.4%
46 | Nn1cc(-c2ccccc2)nc1SCC(=O)N1CCN(S(=O)(=O)c2ccccc2)CC1 | inconclusive: -48.1%

Row | SMILES | activity change (PNC), negative = inhibition
47 | NC(=O)CS(=O)(=O)c1nc2ccccc2n1Cc1ccccc1F | inactive: 30.4%
48 | Nc1ccccc1C(=O)NCc1ccc(Cl)cc1 | inactive: 18.4%
49 | CCC(CC)C(=O)Nc1ccc(Sc2ccc([N+](=O)[O-])cc2)cc1 | inconclusive: -30.3%
50 | O=C(Cc1ccccc1)N/N=C/c1ccccc1F | inconclusive: -41.2%
51 | C=CCn1c(O)c(N=NC(=S)Nc2ccccc2C)c2cc(S(=O)(=O)N3CCOCC3)ccc21 | inconclusive: -31.7%
52 | CCc1ccc(NC(=O)C(=O)NCCN2CCN(Cc3ccc([N+](=O)[O-])cc3)CC2)cc1 | inconclusive: -78.4%
53 | O=C1c2oc3ccc(F)cc3c(=O)c2C(c2ccncc2)N1CCN1CCOCC1 (configuration not stated) | inconclusive: -36.1%
54 | COCCCNC(=O)c1cccc(NC(=O)c2ccccc2)c1 | inactive: 2.44%
55 | CO/C([O-])=N/c1c[n+](-c2ccc(Cl)cc2)no1 | inactive: 16.3%
56 | COCC(C)NC(=O)C(C)Oc1ccccc1 (configuration not stated) | inactive: 19.7%
57 | CCCNC(=O)C1CCN(c2ccc(S(=O)(=O)N3CCOCC3)cc2Cl)CC1 | inconclusive: -63.1%
58 | N/C(=N\c1nc2c(c(=O)[nH]1)CCC2)Nc1ccccc1 | inactive: 16.5%
59 | CC(=NCCc1ccccc1)C1=C(O)CCC1=O | inconclusive: -41.2%
60 | Cc1ccc(-c2csc(NC(=O)c3ccc(-c4ccccc4)cc3)n2)o1 | inactive: -7.11%
61 | O=C(Nc1ccc(Cl)c(Cl)c1)Oc1ccc(NC(=O)c2ccco2)cc1 | inactive: 14.9%
62 | O=C(CCN1C(=O)COc2ccccc21)NCCC1=CCCCC1 | inconclusive: -41.6%
63 | O=C(Nc1ccccc1NC(=O)NC1CCCCC1)NC1CCCCC1 | inactive: -4.65%
64 | Cc1ccc(NC(=O)Nc2nnc(Cc3ccc([N+](=O)[O-])cc3)s2)cc1 | inconclusive: -37.9%
65 | COc1ccc(CCC(=O)NC(C)C)cc1 | inconclusive: -71.6%
66 | C/C(=N\NC(=O)CSc1nc2ccccc2s1)c1ccco1 | inconclusive: -30.3%
67 | O=C1CSc2ccc(C(=O)N3CCN(c4ccccn4)CC3)cc2N1 | inconclusive: -70.8%
68 | CC(C)(C)C(=O)NC(NC(=S)Nc1sc2c(c1C#N)CCCC2)C(Cl)(Cl)Cl (configuration not stated) | inactive: 68.1%
69 | Cc1ccc(Nc2nc(N)c([N+](=O)[O-])c(N3CCOCC3)n2)cc1C | inconclusive: -36.7%

Some of the entries so far, in markdown:

| Row | SMILES | activity change (PNC), negative = inhibition |
| --- | --- | --- |
| 49 | CCC(CC)C(=O)Nc1ccc(Sc2ccc([N+](=O)[O-])cc2)cc1 | inconclusive: -30.3% |
| 50 | O=C(Cc1ccccc1)N/N=C/c1ccccc1F | inconclusive: -41.2% |
| 51 | C=CCn1c(O)c(N=NC(=S)Nc2ccccc2C)c2cc(S(=O)(=O)N3CCOCC3)ccc21 | inconclusive: -31.7% |
| 52 | CCc1ccc(NC(=O)C(=O)NCCN2CCN(Cc3ccc([N+](=O)[O-])cc3)CC2)cc1 | inconclusive: -78.4% |

Continued:

Row | SMILES | activity change (PNC), negative = inhibition
70 | COc1ccc(NS(=O)(=O)c2ccc(Oc3ncccn3)cc2)cc1 | inconclusive: -68.3%
71 | CNC(=O)CCCc1nc(-c2ccccc2Cl)no1 | inactive: -22.1%
72 | CNc1ccc(Br)cc(C(=O)/C=C/c2ccc(OC)cc2)c1=O | active: -109%
73 | CC(C)C1OC2(C)OC(=N)C1(C#N)C(C#N)(C#N)C2c1ccccc1 (configuration not stated) | inconclusive: -31.1%
74 | O=C(NCc1nnc2c3ccccc3c(-c3ccccc3)nn12)c1ccc(Cl)cc1 | active: -111%
75 | Cc1ccsc1C(=O)NNC(=O)Nc1ccc(Cl)c(Cl)c1 | inconclusive: -37.6%
76 | O=C(CSc1nnc(Cn2nnc(-c3ccccc3)n2)n1-c1ccccc1)Nc1ccc(F)cc1 | inconclusive: -57.5%
77 | CN(CC/C=C1/c2ccccc2CSc2ccccc21)CCCO | inconclusive: -43.6%
78 | CC(=O)c1cc2c(cc1NC(=O)CCn1cccc1)OCO2 | inactive: 1.09%
79 | Cc1ccccc1NC(=O)N1CCCC(c2nc(-c3ccc(F)cc3)no2)C1 (configuration not stated) | inconclusive: -33.2%
80 | CSc1cc(C)nc(N(C)C(C)=O)n1 | inconclusive: -50.8%
81 | Cc1c(C(=O)OCC(C)C)[nH]c2c1C(=O)CC(c1ccco1)C2 (configuration not stated) | active: -88.2%
82 | O=C(Nc1ccc2oc(-c3ccccc3)nc2c1)c1ccccc1F | inconclusive: -44.9%
83 | CCC(C)(C)n1nnnc1C(c1cc2cc(C)cc(C)c2[nH]c1=O)N1CCCC1 (configuration not stated) | inconclusive: -31.3%
84 | Cc1cccc(-n2c(=O)c3c(n4cnnc24)-c2ccccc2CC32CCCCC2)c1 | inactive: 45.2%
85 | CCn1nnnc1SCC(=O)NCc1ccco1 | inconclusive: -48.9%
86 | c1coc(CNC2CCCCCCC2)c1 | inconclusive: -45.6%
87 | O=c1oc2c(CN3CCOCC3)c(O)ccc2c2c1CCC2 | inconclusive: -33%
88 | Nc1nncn1C(=O)c1cc(Br)ccc1Cl | inconclusive: -34.2%
89 | CCOc1ccccc1N(CC(=O)N1CCCCCC1)S(C)(=O)=O | inactive: -22.8%
90 | Cc1nc(N2CCN(Cc3ccccc3)CC2)nc2c1C(=O)CCC2 | inactive: 12%
91 | O=C(Nc1ccc(Cl)cc1)N[C@@H]1c2c(ccc3ccccc23)OC[C@@H]1CO | active: -106%
92 | COc1ccccc1N1CCN(C(=O)CN(c2cc(C)cc(C)c2)S(C)(=O)=O)CC1 | inactive: 23.5%
